Experimental data taken from US20220312749A1 (BIOCYTOGEN PHARMACEUTICALS BEIJING, published 2022).
No constants are given. Whether binding was seen depends on the method and setting. Some binding calls cover weakened binding; strength is not graded here.

The chains behind the UniProt entries cited, without tags or fusion partners. Residues count along the entry.
UniProt P60568, residues 21-153: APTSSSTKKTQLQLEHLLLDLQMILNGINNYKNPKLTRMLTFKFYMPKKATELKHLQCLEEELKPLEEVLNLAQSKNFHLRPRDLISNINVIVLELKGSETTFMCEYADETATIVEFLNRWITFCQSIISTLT

Target: T1, mouse IL2RA protein (NP_032393.3) (mouse) (UniProt P01590)
T1 sequence: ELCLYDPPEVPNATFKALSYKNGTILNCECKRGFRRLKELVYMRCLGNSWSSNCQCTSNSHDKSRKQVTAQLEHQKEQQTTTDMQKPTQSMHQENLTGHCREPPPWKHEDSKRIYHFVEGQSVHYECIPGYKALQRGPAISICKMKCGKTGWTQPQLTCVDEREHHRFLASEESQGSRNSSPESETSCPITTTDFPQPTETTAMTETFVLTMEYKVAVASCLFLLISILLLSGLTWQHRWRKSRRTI
Experiment: inferred by the filing from p-STAT5 flow cytometry on wild-type mouse splenocytes

Human IL2 (hIL2) (from UniProt P60568 21-153) (ligand)
binding: binds
